In the supplement of paper PMC10849652:
The list shows a part of the results. Residues, ends and D or L forms follow the SMILES beside them. *: point of attachment. Cbz = O=C(OCc1ccccc1)*

By UniProt entry, the sequences of proteins in these tests, tags left out. Where a name states a change or a piece, a line headed by the entry shows the natural chain unless it says otherwise.
UniProt O75695: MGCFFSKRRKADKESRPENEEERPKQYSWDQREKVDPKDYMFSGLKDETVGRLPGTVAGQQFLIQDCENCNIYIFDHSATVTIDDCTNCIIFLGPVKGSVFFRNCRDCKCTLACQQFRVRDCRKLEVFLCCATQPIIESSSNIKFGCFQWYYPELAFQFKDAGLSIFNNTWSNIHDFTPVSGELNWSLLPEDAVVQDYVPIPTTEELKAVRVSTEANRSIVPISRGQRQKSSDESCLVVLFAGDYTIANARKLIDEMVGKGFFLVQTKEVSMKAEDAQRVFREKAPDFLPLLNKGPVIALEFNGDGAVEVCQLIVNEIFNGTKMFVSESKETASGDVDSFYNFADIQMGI
UniProt Q8IZ73: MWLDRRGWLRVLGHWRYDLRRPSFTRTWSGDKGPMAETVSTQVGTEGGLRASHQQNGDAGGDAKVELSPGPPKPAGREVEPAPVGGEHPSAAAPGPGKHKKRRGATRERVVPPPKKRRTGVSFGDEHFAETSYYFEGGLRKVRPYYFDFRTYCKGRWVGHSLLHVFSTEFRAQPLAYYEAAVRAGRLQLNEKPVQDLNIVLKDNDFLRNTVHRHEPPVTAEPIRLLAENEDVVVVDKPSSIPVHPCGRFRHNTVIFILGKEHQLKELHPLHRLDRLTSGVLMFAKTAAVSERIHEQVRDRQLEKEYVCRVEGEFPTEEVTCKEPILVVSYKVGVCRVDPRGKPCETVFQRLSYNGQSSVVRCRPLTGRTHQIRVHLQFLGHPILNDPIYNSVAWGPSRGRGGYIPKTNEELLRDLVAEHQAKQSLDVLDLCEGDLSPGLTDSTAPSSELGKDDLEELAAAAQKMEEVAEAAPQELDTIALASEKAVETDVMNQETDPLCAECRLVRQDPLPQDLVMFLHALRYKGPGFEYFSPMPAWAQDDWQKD
UniProt P78346: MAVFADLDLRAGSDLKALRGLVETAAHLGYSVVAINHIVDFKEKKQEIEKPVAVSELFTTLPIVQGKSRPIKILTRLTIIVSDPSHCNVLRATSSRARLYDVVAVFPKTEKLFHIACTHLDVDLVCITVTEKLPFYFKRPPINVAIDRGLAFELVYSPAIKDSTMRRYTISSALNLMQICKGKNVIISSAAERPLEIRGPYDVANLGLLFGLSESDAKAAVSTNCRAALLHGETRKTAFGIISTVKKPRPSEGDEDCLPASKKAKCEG
UniProt Q9H6T3, whole entry, looked up: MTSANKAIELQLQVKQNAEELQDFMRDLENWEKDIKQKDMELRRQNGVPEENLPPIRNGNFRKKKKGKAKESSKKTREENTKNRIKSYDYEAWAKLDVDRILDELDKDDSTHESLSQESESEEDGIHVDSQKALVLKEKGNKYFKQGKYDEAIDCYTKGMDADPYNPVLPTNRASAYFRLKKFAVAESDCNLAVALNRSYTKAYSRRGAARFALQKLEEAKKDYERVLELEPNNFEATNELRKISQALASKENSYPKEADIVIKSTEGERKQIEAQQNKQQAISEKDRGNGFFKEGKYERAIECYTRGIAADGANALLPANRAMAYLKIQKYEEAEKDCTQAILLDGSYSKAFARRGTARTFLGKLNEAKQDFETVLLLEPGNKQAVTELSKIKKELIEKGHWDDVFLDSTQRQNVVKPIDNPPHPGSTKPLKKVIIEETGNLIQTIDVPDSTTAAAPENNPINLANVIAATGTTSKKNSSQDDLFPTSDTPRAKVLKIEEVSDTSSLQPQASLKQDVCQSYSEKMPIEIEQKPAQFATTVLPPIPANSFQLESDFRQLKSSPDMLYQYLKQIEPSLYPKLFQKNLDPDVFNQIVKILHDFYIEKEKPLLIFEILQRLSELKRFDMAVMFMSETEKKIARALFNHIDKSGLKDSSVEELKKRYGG
UniProt Q96BH1: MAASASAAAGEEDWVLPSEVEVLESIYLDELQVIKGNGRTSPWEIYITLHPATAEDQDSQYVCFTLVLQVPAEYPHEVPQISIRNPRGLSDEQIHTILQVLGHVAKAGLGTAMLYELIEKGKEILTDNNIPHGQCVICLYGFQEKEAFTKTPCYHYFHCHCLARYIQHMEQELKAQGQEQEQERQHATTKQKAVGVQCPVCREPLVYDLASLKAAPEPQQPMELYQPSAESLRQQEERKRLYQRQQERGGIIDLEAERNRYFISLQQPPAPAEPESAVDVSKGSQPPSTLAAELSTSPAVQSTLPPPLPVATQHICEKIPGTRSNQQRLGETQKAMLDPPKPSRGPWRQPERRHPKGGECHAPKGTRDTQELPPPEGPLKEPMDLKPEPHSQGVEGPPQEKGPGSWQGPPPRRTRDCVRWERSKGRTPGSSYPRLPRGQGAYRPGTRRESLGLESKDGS
UniProt Q86WX3: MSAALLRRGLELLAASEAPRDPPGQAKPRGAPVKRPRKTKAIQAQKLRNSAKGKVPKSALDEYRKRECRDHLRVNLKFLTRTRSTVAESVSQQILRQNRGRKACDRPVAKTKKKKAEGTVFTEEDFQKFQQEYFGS

Tests used:
Test in all cases: log2 fold change, soluble protein after heating vs DMSO (PISA); higher = thermal stabilisation; K562 cells, 10 uM, 30 min; active = over 0.2 and 3.5 SD of the protein, either way, in both replicates (recomputed)
erlotinib = compound: C#Cc1cccc(Nc2ncnc3cc(OCCOC)c(OCCOC)cc23)c1 [erlotinib]
Procedure, shortened: (§1)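 K562 cells at 2×10^6 cells/mL were treated with 10 μM compound for 30 min. Aliquots were heated for 3 min across 48°C-58°C, pooled, and extracted in PBS with 0.5% NP-40 at 4°C; soluble protein was the supernatant after 21,000xg for 90 min. Soluble protein was quantified by TMTpro 16plex LC-MS/MS with channel sums equalised, and reported as log2 fold change in thermal stability against DMSO controls, with values from duplicates.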

[1] = compound: C/C(=N\NC(=O)C1=CC(=CC=C1)S(=O)(=O)N2CCOCC2)/C3=C(C=CC(=C3)Cl)O
Procedure, shortened: as §1

[2] = compound: C1=CC(=C(C=C1Cl)C2=NC3=NC=CN=C3C(=N2)NC4=CC=NC=C4)F
Procedure, shortened: as §1

[3] = compound: C1=CC(=CC=C1C2=NC3=C(N2)C=C(C=C3)C(=O)N)OC4=CC=C(C=C4)Cl
Procedure, shortened: as §1

[4] = compound: C1=CC2=C(C=CC(=C2)/C=C\3/C(=O)NC(=NCC4=CC=CS4)S3)N=C1
Procedure, shortened: as §1

[5] = compound: C1=CC2=NC=CN=C2C=C1/C=C/3\C(=O)NC(=O)S3
Procedure, shortened: as §1

[6] = compound: C1=CC=C(C=C1)C2=NC(=C(N2)C3=CC=NC=C3)C4=CC(=C(C=C4)Cl)O
Procedure, shortened: as §1

[7] = compound: C1=CC=C2C(=C1)C3=NNC4=CC=CC(=C43)C2=O
Procedure, shortened: as §1

[8] = compound: C1CCN(C1)C(=O)NC2=CC=CC(=C2)NC3=NC=C(C(=N3)NCCC4=CN=CN4)Br
Procedure, shortened: as §1

[9] = compound: C1CN(CCC1(CC2=CC=C(C=C2)Cl)N)C3=NC=NC4=C3C=CN4
Procedure, shortened: as §1

IRAK-1-4 Inhibitor I = compound: C1COCCN1CCN2C3=CC=CC=C3N=C2NC(=O)C4=CC(=CC=C4)[N+](=O)[O-] [IRAK-1-4 Inhibitor I]
Procedure, shortened: as §1

ibrutinib = compound: C=CC(=O)N1CCC[C@@H](n2nc(-c3ccc(Oc4ccccc4)cc3)c3c(N)ncnc32)C1 [ibrutinib]
Procedure, shortened: as §1

[10] = compound: CC(=O)c1cnc2ccc(-c3cc(Cl)c(O)c(Cl)c3)nc2c1N[C@H]1CC[C@H](CN(C)C)CC1
Procedure, shortened: as §1

ralimetinib = compound: CC(C)(C)Cn1c(N)nc2ccc(-c3[nH]c(C(C)(C)C)nc3-c3ccc(F)cc3)nc21 [ralimetinib]
Procedure, shortened: as §1

[11] = compound: CC(C)(O)CC(=O)NCCn1ccc2ncnc(Nc3ccc(Oc4cccc(C(F)(F)F)c4)c(Cl)c3)c21
Procedure, shortened: as §1

[12] = compound: CC(C)C1=C2N=C(C=C(N2N=C1)NCC3=CC=CC=C3)NCCCCCCN
Procedure, shortened: as §1

[13] = compound: CC(C)C[C@@H](C=O)NC(=O)[C@H](CC(C)C)NC(=O)[C@H](CC(C)C)NC(=O)OCc1ccccc1
Procedure, shortened: as §1

pinometostat = compound: CC(C)N(C[C@H]1O[C@@H](n2cnc3c(N)ncnc32)[C@H](O)[C@@H]1O)[C@H]1C[C@@H](CCc2nc3cc(C(C)(C)C)ccc3[nH]2)C1 [pinometostat]
Procedure, shortened: as §1

[14] = compound: CC1=C(C(CC(=O)N1)C2=CC=C(C=C2)C(F)(F)F)C(=O)NC3=C(C=C4C(=C3)C=NN4)F
Procedure, shortened: as §1

[15] = compound: CC1=C(C2=C(C=C1)C(=O)C3=CC=CC=C3N2CCCN)C
Procedure, shortened: as §1

Measured: log2 fold change

RPL11 (UniProt P62913)
inactive: erlotinib -0.287 | [1] -0.348 | [2] -0.919 | [3] 0.01 | [4] -0.232 | [5] -0.045 | [6] -0.056 | [7] -0.031 | [8] 0.063 | [9] -0.344 | IRAK-1-4 Inhibitor I -0.234 | ibrutinib 0.047 | [10] 0.137 | ralimetinib 0.196 | [11] 0 | [12] -0.045 | [13] 0.233 | pinometostat 0.507 | [14] 0.099 | [15] -0.364

RPL23 (UniProt P62829)
inactive: erlotinib -0.156 | [1] -0.16 | [2] -0.408 | [3] 0.043 | [4] -0.096 | [5] -0.033 | [6] -0.036 | [7] 0.039 | [8] 0.088 | [9] -0.179 | IRAK-1-4 Inhibitor I -0.12 | ibrutinib 0.041 | [10] 0.15 | ralimetinib 0.166 | [11] 0 | [12] -0.015 | [13] 0.087 | pinometostat 0.318 | [14] 0.038 | [15] -0.243

RP2 (UniProt O75695)
inactive: erlotinib -0.01 | [1] 0.02 | [2] -0.008 | [3] 0.009 | [4] 0.086 | [5] 0.084 | [6] -0.009 | [7] -0.055 | [8] 0 | [9] -0.003 | IRAK-1-4 Inhibitor I 0.034 | ibrutinib -0.006 | [10] 0.074 | ralimetinib -0.041 | [11] -0.033 | [12] -0.032 | [13] 0.062 | pinometostat 0.009 | [14] -0.039 | [15] -0.002

RPL15 (UniProt P61313)
inactive: erlotinib -0.577 | [1] -0.487 | [2] -1.23 | [3] 0.078 | [4] -0.266 | [5] -0.006 | [6] -0.014 | [7] 0.003 | [8] 0.054 | [9] -0.343 | IRAK-1-4 Inhibitor I -0.244 | ibrutinib 0.118 | [10] 0.253 | ralimetinib 0.321 | [11] 0.093 | [12] 0.028 | [13] 0.217 | pinometostat 0.603 | [14] 0.116 | [15] -1.16

RPS27L (UniProt Q71UM5)
inactive: erlotinib -0.12 | [1] -0.002 | [2] -0.14 | [3] 0.059 | [4] -0.039 | [5] -0.062 | [6] 0.086 | [7] -0.053 | [8] 0.054 | [9] -0.146 | IRAK-1-4 Inhibitor I -0.051 | ibrutinib 0.026 | [10] 0.039 | ralimetinib 0.11 | [11] -0.026 | [12] -0.087 | [13] 0.094 | pinometostat 0.098 | [14] -0.026 | [15] -0.122

RPL7 (UniProt P18124)
inactive: erlotinib -0.479 | [1] -0.385 | [2] -1.17 | [3] 0.085 | [4] -0.194 | [5] -0.057 | [6] -0.111 | [7] 0.057 | [8] 0.026 | [9] -0.433 | IRAK-1-4 Inhibitor I -0.287 | ibrutinib 0.1 | [10] 0.293 | ralimetinib 0.256 | [11] 0.105 | [12] -0.015 | [13] 0.188 | pinometostat 0.581 | [14] 0.095 | [15] -1.03

Reprinted at random: two records from the list
RPL15 (UniProt P61313)
inactive: erlotinib -0.577 | [1] -0.487 | [2] -1.23 | [3] 0.078 | [4] -0.266 | [5] -0.006 | [6] -0.014 | [7] 0.003 | [8] 0.054 | [9] -0.343 | IRAK-1-4 Inhibitor I -0.244 | ibrutinib 0.118 | [10] 0.253 | ralimetinib 0.321 | [11] 0.093 | [12] 0.028 | [13] 0.217 | pinometostat 0.603 | [14] 0.116 | [15] -1.16

RPL7 (UniProt P18124)
inactive: erlotinib -0.479 | [1] -0.385 | [2] -1.17 | [3] 0.085 | [4] -0.194 | [5] -0.057 | [6] -0.111 | [7] 0.057 | [8] 0.026 | [9] -0.433 | IRAK-1-4 Inhibitor I -0.287 | ibrutinib 0.1 | [10] 0.293 | ralimetinib 0.256 | [11] 0.105 | [12] -0.015 | [13] 0.188 | pinometostat 0.581 | [14] 0.095 | [15] -1.03

(listing goes on)

RPUSD2 (UniProt Q8IZ73)
inactive: erlotinib 0 | [1] -0.015 | [2] -0.007 | [3] 0.006 | [4] 0.011 | [5] -0.019 | [6] 0.009 | [7] 0 | [8] -0.01 | [9] 0.019 | IRAK-1-4 Inhibitor I 0.036 | ibrutinib 0.017 | [10] 0.019 | ralimetinib -0.041 | [11] 0.003 | [12] 0.028 | [13] 0.053 | pinometostat 0.013 | [14] 0.016 | [15] -0.008

RPP30 isoform 2 (UniProt P78346)
inactive: erlotinib -0.002 | [1] -0.085 | [2] -0.019 | [3] 0.044 | [4] 0.001 | [5] -0.007 | [6] -0.037 | [7] -0.039 | [8] 0.121 | [9] 0.047 | IRAK-1-4 Inhibitor I -0.022 | ibrutinib 0.052 | [10] -0.033 | ralimetinib 0.006 | [11] 0.039 | [12] 0.035 | [13] 0.015 | pinometostat 0.047 | [14] 0.027 | [15] -0.107

RPL27 (UniProt P61353)
inactive: erlotinib -0.444 | [1] -0.234 | [2] -0.953 | [3] 0.039 | [4] -0.305 | [5] -0.012 | [6] 0.086 | [7] 0.084 | [8] -0.006 | [9] -0.311 | IRAK-1-4 Inhibitor I -0.291 | ibrutinib 0.072 | [10] 0.297 | ralimetinib 0.24 | [11] 0.051 | [12] 0 | [13] 0.084 | pinometostat 0.436 | [14] 0.074 | [15] -0.967

RPAP3 (UniProt Q9H6T3)
inactive: erlotinib 0.018 | [1] 0.099 | [2] -0.03 | [3] -0.002 | [4] 0.033 | [5] -0.026 | [6] -0.038 | [7] 0.008 | [8] -0.039 | [9] -0.122 | IRAK-1-4 Inhibitor I -0.065 | ibrutinib -0.019 | [10] -0.021 | ralimetinib 0.029 | [11] -0.035 | [12] -0.045 | [13] 0.081 | pinometostat 0.041 | [14] -0.041 | [15] 0.033

RPL18 (UniProt Q07020)
inactive: erlotinib -0.385 | [1] -0.416 | [2] -0.976 | [3] 0.094 | [4] -0.253 | [5] -0.037 | [6] -0.171 | [7] 0.017 | [8] 0.084 | [9] -0.354 | IRAK-1-4 Inhibitor I -0.192 | ibrutinib 0.056 | [10] 0.266 | ralimetinib 0.289 | [11] 0.037 | [12] 0.033 | [13] 0.172 | pinometostat 0.576 | [14] 0.107 | [15] -0.966

RPL13A (UniProt P40429)
inactive: erlotinib -0.412 | [1] -0.348 | [2] -1.01 | [3] 0.079 | [4] -0.242 | [5] -0.077 | [6] -0.083 | [7] 0.05 | [8] 0.04 | [9] -0.475 | IRAK-1-4 Inhibitor I -0.258 | ibrutinib 0.045 | [10] 0.294 | ralimetinib 0.281 | [11] 0.011 | [12] -0.044 | [13] 0.036 | pinometostat 0.562 | [14] 0.115 | [15] -1.06

RNF25 (UniProt Q96BH1)
inactive: erlotinib 0.002 | [1] 0.026 | [2] 0.043 | [3] 0.039 | [4] -0.048 | [5] 0.026 | [6] 0.058 | [7] -0.015 | [8] -0.06 | [9] -0.022 | IRAK-1-4 Inhibitor I 0.047 | ibrutinib 0.011 | [10] -0.024 | ralimetinib 0.028 | [11] -0.039 | [12] -0.033 | [13] -0.013 | pinometostat -0.035 | [14] 0.008 | [15] 0.071

RPL17 isoform 3 (UniProt P18621)
inactive: erlotinib -0.281 | [1] -0.163 | [2] -0.607 | [3] 0.043 | [4] -0.22 | [5] -0.088 | [6] 0.075 | [7] 0.024 | [8] 0.079 | [9] -0.232 | IRAK-1-4 Inhibitor I -0.201 | ibrutinib 0.202 | [10] 0.174 | ralimetinib 0.248 | [11] 0.023 | [12] -0.027 | [13] 0.216 | pinometostat 0.33 | [14] -0.005 | [15] -0.661

RPL18A (UniProt Q02543)
inactive: erlotinib -0.467 | [1] -0.34 | [2] -1.05 | [3] 0.111 | [4] -0.201 | [5] -0.057 | [6] -0.148 | [7] 0.042 | [8] 0.128 | [9] -0.346 | IRAK-1-4 Inhibitor I -0.275 | ibrutinib 0.055 | [10] 0.355 | ralimetinib 0.232 | [11] 0.046 | [12] 0.003 | [13] 0.181 | pinometostat 0.606 | [14] 0.068 | [15] -0.856

RPS19BP1 (UniProt Q86WX3)
inactive: erlotinib -0.001 | [1] -0.122 | [2] -0.213 | [3] 0.157 | [4] 0.004 | [5] 0.024 | [6] -0.133 | [7] -0.006 | [8] 0.09 | [9] -0.076 | IRAK-1-4 Inhibitor I -0.095 | ibrutinib 0.006 | [10] 0.093 | ralimetinib 0.02 | [11] 0.219 | [12] -0.17 | [13] 0.172 | pinometostat 0.118 | [14] -0.083 | [15] -0.333
